Test results reported in the supplement of paper PMC6078165.
The reference is the same well before dosing, and untreated signal decays as well.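 Fibroblast labels name human fibroblasts: mostly primary ones from tissues such as uterus (C12385, HUF), lung (H6013), bone (Hs27A), adrenal (HADF) and skin (WS1), plus mammary HMF and breast cancer-associated Hs343T. The cancer cells are basal-like or mesenchymal-like triple-negative breast cancer lines. The paper calls a changed response a hit when it shifts by more than 3x the replicate standard deviation. The tissue of the other fibroblasts is not given here.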

Tested on: MDAMB231
Assay: relative JC-1 red fluorescence (viability) vs pre-drug, coculture with fibroblast (fraction); higher = more viable cancer cells
Method: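 JC-1 labelled TNBC cells cocultured 1:1 (1,500 cells each) with CellTrace Violet stained primary or stromal fibroblasts in 384-well plates in FluoroBrite medium, treated with one of 42 anticancer drugs at 0.1, 1, 10 or 100 uM. JC-1 red fluorescence (mitochondrial integrity in cancer cells only) was read by plate reader every 8 h for 72 h. Values are normalised to each well's pre-drug value. The stock of one drug was tenfold lower, so its dose labels may be too high.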

CN(C)CCOc1ccc(/C(=C(/CCCl)c2ccccc2)c2ccccc2)cc1 [Toremifene]
relative JC-1 red fluorescence
Details	8 h	16 h	24 h	32 h	40 h	48 h	56 h	64 h	72 h
0.1 µM, coculture fibroblast: C12385	0.7685	0.73	0.669	0.62	0.564	0.531	0.486	0.485	0.459
0.1 µM, coculture fibroblast: H6013	0.891	0.819	0.767	0.757	0.718	0.693	0.679	0.652	0.614
0.1 µM, coculture fibroblast: H6019	0.758	0.7052	0.6764	0.62	0.572	0.549	0.5164	0.502	0.467
0.1 µM, coculture fibroblast: H6076	0.883	0.793	0.717	0.671	0.611	0.563	0.528	0.502	0.485
0.1 µM, coculture fibroblast: H6231	0.92664	0.828	0.76	0.72	0.677	0.639	0.594	0.572	0.554
0.1 µM, coculture fibroblast: HADF	0.882	0.814	0.765	0.741	0.699	0.657	0.639	0.621	0.579
0.1 µM, coculture fibroblast: HCFa	0.882	0.829	0.79	0.76	0.706	0.65	0.612	0.57	0.5212
0.1 µM, coculture fibroblast: HCPF	0.891	0.77	0.692	0.656	0.599	0.557	0.509	0.48	0.459
0.1 µM, coculture fibroblast: HHSteC	0.885	0.833	0.768	0.718	0.665	0.624	0.58566	0.5612	0.5289
0.1 µM, coculture fibroblast: HMF	0.854	0.771	0.755	0.717	0.678	0.639	0.61	0.598	0.587
0.1 µM, coculture fibroblast: HPFa	0.936	0.877	0.81	0.752	0.725	0.681	0.62	0.581	0.521
0.1 µM, coculture fibroblast: HUF	0.8681	0.7165	0.739	0.606	0.545	0.519	0.471	0.467	0.439
0.1 µM, coculture fibroblast: Hs5	0.929	0.8665	0.803	0.752	0.702	0.654	0.619	0.584	0.554
0.1 µM, coculture fibroblast: Hs27A	0.8578	0.775	0.735	0.7	0.643	0.567	0.567	0.541	0.496
0.1 µM, coculture fibroblast: Hs343T	0.861	0.719	0.652	0.6034	0.551	0.497	0.4469	0.43	0.414
0.1 µM, coculture fibroblast: WS1	0.777	0.71766	0.6785	0.617	0.561	0.528	0.478	0.468	0.441
1 µM, coculture fibroblast: C12385	0.792	0.792	0.638	0.659	0.603	0.56	0.511	0.501	0.473
1 µM, coculture fibroblast: H6013	0.9143	0.857	0.8161	0.8013	0.746	0.70945	0.7078	0.6802	0.6589
1 µM, coculture fibroblast: H6019	0.781	0.7279	0.673	0.6674	0.615	0.574	0.528	0.499	0.463
1 µM, coculture fibroblast: H6076	0.877	0.814	0.785	0.773	0.747	0.7149	0.6894	0.6851	0.677
1 µM, coculture fibroblast: H6231	0.938	0.855	0.786	0.752	0.705	0.672	0.63	0.617	0.59
1 µM, coculture fibroblast: HADF	0.895	0.854	0.802	0.77	0.741	0.686	0.671	0.656	0.605
1 µM, coculture fibroblast: HCFa	0.92313	0.8597	0.837	0.804	0.775	0.719	0.697	0.663	0.624
1 µM, coculture fibroblast: HCPF	0.899	0.808	0.75	0.742	0.681	0.648	0.606	0.568	0.557
1 µM, coculture fibroblast: HHSteC	0.951	0.931	0.925	0.904	0.874	0.844	0.813	0.802	0.762
1 µM, coculture fibroblast: HMF	0.951	0.8844	0.837	0.812	0.768	0.733	0.701	0.68	0.659
1 µM, coculture fibroblast: HPFa	0.9704	0.9302	0.878	0.835	0.803	0.761	0.713	0.686	0.635
1 µM, coculture fibroblast: HUF	0.899	0.822	0.808	0.7	0.628	0.593	0.54	0.526	0.492
1 µM, coculture fibroblast: Hs5	0.936	0.85	0.805	0.751	0.7	0.65	0.609	0.576	0.538
1 µM, coculture fibroblast: Hs27A	0.917	0.881	0.851	0.828	0.774	0.707	0.727	0.708	0.672
1 µM, coculture fibroblast: Hs343T	0.9228	0.857	0.793	0.762	0.71	0.667	0.613	0.595	0.576
1 µM, coculture fibroblast: WS1	0.794	0.77801	0.6431	0.645	0.598	0.57	0.527	0.506	0.475
10 µM, coculture fibroblast: C12385	0.751	0.8086	0.639	0.781	0.768	0.755	0.734	0.722	0.714
10 µM, coculture fibroblast: H6013	0.9309	0.954	0.953	0.949	0.927	0.878	0.901	0.896	0.884
10 µM, coculture fibroblast: H6019	0.821	0.89	0.816	0.815	0.899	0.887	0.766	0.863	0.754
10 µM, coculture fibroblast: H6076	0.798	0.825	0.963	0.98949	0.9569	0.9287	0.893	0.864	0.8427
10 µM, coculture fibroblast: H6231	0.94	0.918	0.829	0.867	0.877	0.821	0.858	0.85	0.843
10 µM, coculture fibroblast: HADF	0.931	0.945	0.95	0.978	0.9771	0.9049	0.9618	0.9735	0.955
10 µM, coculture fibroblast: HCFa	0.955	0.9722	0.98	0.886	0.97	0.8953	0.9116	0.8763	0.855
10 µM, coculture fibroblast: HCPF	0.955	0.935	0.924	0.924	0.911	0.889	0.891	0.864	0.877
10 µM, coculture fibroblast: HHSteC	0.909	0.87	0.836	0.928	0.897	0.845	0.834	0.876	0.945
10 µM, coculture fibroblast: HMF	0.879	0.936	0.97	0.949	0.924	0.898	0.871	0.85	0.848
10 µM, coculture fibroblast: HPFa	0.93	0.954	0.952	0.9365	0.957	0.915	0.922	0.922	0.907
10 µM, coculture fibroblast: HUF	0.856	0.793	0.794	0.737	0.688	0.659	0.624	0.627	0.599
10 µM, coculture fibroblast: Hs5	0.9448	0.931	0.906	0.904	0.877	0.849	0.83	0.812	0.811
10 µM, coculture fibroblast: Hs27A	0.935	0.915	0.919	0.948	0.918	0.797	0.881	0.886	0.863
10 µM, coculture fibroblast: Hs343T	0.852	0.871	0.868	0.922	0.891	0.879	0.879	0.8813	0.859
10 µM, coculture fibroblast: WS1	0.7832	0.8494	0.664	0.843	0.879	0.891	0.891	0.885	0.87
100 µM, coculture fibroblast: C12385	0.498	0.311	0.324	0.213	0.147	0.112	0.0806	0.0648	0.0391
100 µM, coculture fibroblast: H6013	0.532	0.287	0.263	0.236	0.201	0.188	0.152	0.134	0.0922
100 µM, coculture fibroblast: H6019	0.509	0.285	0.307	0.23	0.195	0.17	0.14	0.13	0.0982
100 µM, coculture fibroblast: H6076	0.534	0.357	0.349	0.323	0.28	0.24	0.206	0.181	0.148
100 µM, coculture fibroblast: H6231	0.54758	0.389	0.321	0.296	0.262	0.233	0.195	0.181	0.152
100 µM, coculture fibroblast: HADF	0.52	0.287	0.252	0.22	0.19	0.174	0.136	0.121	0.0773
100 µM, coculture fibroblast: HCFa	0.624	0.367	0.354	0.323	0.298	0.28	0.245	0.225	0.183
100 µM, coculture fibroblast: HCPF	0.48	0.352	0.31	0.295	0.25	0.216	0.177	0.148	0.123
100 µM, coculture fibroblast: HHSteC	0.52	0.332	0.318	0.273	0.24	0.225	0.181	0.163	0.118
100 µM, coculture fibroblast: HMF	0.518	0.316	0.273	0.247	0.211	0.176	0.138	0.118	0.0912
100 µM, coculture fibroblast: HPFa	0.667	0.424	0.402	0.362	0.341	0.323	0.272	0.249	0.208
100 µM, coculture fibroblast: HUF	0.636	0.408	0.434	0.308	0.255	0.232	0.184	0.169	0.136
100 µM, coculture fibroblast: Hs5	0.414	0.3128	0.311	0.272	0.24	0.189	0.156	0.123	0.0939
100 µM, coculture fibroblast: Hs27A	0.621	0.389	0.327	0.293	0.258	0.248	0.21	0.195	0.152
100 µM, coculture fibroblast: Hs343T	0.507	0.311	0.296	0.279	0.239	0.197	0.163	0.139	0.107
100 µM, coculture fibroblast: WS1	0.492	0.314	0.379	0.267	0.231	0.201	0.17	0.154	0.124
